Reference: patent publication US10736316B2, “Silica particles functionalized and loaded with fungicidal agents, their manufacture and their use as systems of targeted and controlled release of fungicides” (priority 2015, dated 2020)

Experiment: Fungicide residue in fruit, oranges of Navel variety inoculated with P. digitatum
Settings: example 10

## imazalil sulfate [IMZ REF]
Oranges Navel, P. digitatum, after 7 days at 22° C. and 85% RH
  IMZ residue in fruit: 1.10 mg/kg
Versus reference treatment IMZ REF
  Reduction of residues in fruit: 0.0%
